Test results published in patent US20030091557A1, “Methods and compositions for modulating ACE-2 activity” (priority 2001, published 2003).
Results are given in words; binding and its absence hold for the method and conditions named. Some results given as binding are weak or reduced against the parent protein; the word gives no strength.

target: FLAG-tagged ACE-2 (human) (UniProt Q9BYF1); experiment: phage ELISA, FLAG-ACE-2 on anti-FLAG antibody plate

binding, binds:
SDYCVGNNAVTYCFDF, LHDCFIYADYEYCFDF, NWNCLGTNELQFCLDF, DDDCMMLPLTMFCFDF, NDYCTVFTGALFCLDF, WEDCLWIGMMCVEF, FSPCKALRHSPWWVCPSG, PNQCGVDIWALFCVDF, NLDCIYLQNHSYCFDF, YFACTNNDSYLFCLDF, HIECEEWGYWCIEM, DNLCMSGGSFDYCFDF, NPECGALFCMEF, HLDCYNLVDNMFCFDF, YDNCLGLANLNFCFDF, GGQCGTSYLFCIDF, DDKCFGWAHFCFDF, NHHCLEFSSFEYCFDF, DQNCFAMYCFEF, YSGCADMYMFCIDF, GFTCSPIRMFPWFRCDLG, KFECMPSSLFCVDF, DDYCFNISSYSYCFDF, EGNCFLIGPWCFEF, YEDCIGHALFCMTF, DFGCNAMFCVEF
